Measured values reported in patent US12728111B2, “Electrophilic compounds and electrophilic prodrugs for treating aneurysm” (University of Pittsburgh—Of the Commonwealth System of …, priority 2020, dated 2026).

Assay: Serum cholesterol, triglyceride and body weight in AAA model mice
Type: in vivo, mouse
Conditions: 5 mg/kg/day, 4 weeks; for serum TG levels: compared to vehicle

Row | SMILES | serum TG levels | body weight | cholesterol
1 | CCCCCCCCC=CCCCCCCCC(=O)O [OA, octadec-9-enoic acid, reference compound] | significantly lower |  | 
2 | CCCCCCCCC(=CCCCCCCCC(=O)O)[N+](=O)[O-] [NO2—OA, 10-nitro-octadec-9-enoic acid] | significantly decreased | no changes | no changes
